Measured values: the supplement of paper PMC12823440, “Inhibitors supercharge kinase turnover through native proteolytic circuits” (Nature, 2025)
Where a name gives a salt, the structure may show the parent alone. This is one part of the list. Hit calls seldom repeat between salt and free forms of one compound.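 Kinases were expressed as nanoluciferase fusions in K562 cells and luminescence was read every 4 h between 2 and 18 h as percent of control, DMSO set to 100% and a positive control to 0%. A time point counts as decreased when the signal drops significantly (2 sigma). The hit call is the authors' own, does not follow from the count of time points alone, and its rule is not shown.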

Sequences of proteins named here, by UniProt entry; tags and fusion partners are left off. A change or cut given only in a name is not applied to a line headed by its entry.
UniProt P31749: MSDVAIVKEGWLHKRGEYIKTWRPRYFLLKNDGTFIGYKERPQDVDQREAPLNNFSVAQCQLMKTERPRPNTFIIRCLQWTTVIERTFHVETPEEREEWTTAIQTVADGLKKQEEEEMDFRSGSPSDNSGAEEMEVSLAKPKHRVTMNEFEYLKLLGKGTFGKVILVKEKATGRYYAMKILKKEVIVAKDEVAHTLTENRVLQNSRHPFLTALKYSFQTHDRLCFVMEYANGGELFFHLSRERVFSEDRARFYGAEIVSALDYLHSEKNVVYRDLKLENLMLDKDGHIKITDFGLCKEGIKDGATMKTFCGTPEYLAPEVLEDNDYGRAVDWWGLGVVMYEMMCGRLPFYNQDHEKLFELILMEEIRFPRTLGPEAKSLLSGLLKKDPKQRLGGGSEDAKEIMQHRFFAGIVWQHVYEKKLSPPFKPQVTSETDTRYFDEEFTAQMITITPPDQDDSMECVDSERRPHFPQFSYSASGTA
UniProt Q9UM73: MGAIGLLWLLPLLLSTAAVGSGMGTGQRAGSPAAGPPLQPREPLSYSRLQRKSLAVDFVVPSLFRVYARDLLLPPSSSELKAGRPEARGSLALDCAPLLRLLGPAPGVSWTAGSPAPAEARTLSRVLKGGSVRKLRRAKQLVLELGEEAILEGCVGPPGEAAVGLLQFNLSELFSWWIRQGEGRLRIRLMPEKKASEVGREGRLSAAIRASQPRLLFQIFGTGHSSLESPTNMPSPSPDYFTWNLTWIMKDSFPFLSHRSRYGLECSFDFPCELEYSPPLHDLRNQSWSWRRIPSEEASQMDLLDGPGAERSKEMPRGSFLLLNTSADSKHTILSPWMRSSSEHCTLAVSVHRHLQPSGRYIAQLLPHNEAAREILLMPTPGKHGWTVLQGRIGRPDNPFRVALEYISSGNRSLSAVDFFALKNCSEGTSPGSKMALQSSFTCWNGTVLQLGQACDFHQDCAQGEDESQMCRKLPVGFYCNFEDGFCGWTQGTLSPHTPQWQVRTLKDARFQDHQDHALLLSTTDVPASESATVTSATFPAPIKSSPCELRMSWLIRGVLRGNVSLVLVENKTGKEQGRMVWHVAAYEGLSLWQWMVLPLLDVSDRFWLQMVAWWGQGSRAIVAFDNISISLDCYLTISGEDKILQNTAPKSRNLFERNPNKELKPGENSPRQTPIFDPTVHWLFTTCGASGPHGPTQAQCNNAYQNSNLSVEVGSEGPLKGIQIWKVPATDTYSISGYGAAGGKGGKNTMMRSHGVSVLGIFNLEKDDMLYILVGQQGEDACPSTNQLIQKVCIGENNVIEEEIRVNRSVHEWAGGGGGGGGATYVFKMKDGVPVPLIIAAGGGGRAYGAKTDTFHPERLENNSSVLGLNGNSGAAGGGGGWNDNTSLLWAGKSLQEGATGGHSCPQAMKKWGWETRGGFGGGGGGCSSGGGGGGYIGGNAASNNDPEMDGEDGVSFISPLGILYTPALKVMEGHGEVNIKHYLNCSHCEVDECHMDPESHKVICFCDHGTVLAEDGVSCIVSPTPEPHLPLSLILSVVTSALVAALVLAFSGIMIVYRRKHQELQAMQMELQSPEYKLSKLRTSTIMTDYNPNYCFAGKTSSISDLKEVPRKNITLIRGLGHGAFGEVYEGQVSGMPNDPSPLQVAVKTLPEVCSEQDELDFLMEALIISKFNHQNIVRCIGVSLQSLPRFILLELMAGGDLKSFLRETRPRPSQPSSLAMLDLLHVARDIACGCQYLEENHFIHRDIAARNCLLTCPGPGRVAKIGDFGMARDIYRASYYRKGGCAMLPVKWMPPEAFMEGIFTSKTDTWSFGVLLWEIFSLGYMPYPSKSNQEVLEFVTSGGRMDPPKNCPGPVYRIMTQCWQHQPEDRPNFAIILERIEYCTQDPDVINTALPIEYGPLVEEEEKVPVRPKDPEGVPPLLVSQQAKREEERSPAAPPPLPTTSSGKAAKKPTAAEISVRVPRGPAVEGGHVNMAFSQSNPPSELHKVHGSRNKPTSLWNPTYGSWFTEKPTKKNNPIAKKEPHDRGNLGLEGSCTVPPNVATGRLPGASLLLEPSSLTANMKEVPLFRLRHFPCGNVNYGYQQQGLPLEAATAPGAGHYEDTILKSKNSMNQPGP
UniProt Q96GD4, whole entry: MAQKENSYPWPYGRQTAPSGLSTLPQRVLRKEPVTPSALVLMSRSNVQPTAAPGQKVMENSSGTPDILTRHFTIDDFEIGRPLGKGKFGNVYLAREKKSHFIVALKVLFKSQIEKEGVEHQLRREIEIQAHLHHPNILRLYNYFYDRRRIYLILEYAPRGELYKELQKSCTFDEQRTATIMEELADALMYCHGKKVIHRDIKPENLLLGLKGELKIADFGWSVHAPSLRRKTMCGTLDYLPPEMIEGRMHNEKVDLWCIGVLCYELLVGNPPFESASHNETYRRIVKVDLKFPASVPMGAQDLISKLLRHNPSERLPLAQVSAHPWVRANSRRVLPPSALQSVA
UniProt Q9UQB9: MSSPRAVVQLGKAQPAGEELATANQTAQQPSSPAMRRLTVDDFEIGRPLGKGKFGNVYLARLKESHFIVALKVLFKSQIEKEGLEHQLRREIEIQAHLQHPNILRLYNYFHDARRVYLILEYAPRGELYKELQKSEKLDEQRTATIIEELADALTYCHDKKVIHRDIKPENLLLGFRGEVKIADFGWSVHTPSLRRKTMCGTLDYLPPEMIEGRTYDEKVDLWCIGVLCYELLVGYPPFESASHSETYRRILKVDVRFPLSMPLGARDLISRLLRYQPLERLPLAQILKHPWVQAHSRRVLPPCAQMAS
UniProt P51451: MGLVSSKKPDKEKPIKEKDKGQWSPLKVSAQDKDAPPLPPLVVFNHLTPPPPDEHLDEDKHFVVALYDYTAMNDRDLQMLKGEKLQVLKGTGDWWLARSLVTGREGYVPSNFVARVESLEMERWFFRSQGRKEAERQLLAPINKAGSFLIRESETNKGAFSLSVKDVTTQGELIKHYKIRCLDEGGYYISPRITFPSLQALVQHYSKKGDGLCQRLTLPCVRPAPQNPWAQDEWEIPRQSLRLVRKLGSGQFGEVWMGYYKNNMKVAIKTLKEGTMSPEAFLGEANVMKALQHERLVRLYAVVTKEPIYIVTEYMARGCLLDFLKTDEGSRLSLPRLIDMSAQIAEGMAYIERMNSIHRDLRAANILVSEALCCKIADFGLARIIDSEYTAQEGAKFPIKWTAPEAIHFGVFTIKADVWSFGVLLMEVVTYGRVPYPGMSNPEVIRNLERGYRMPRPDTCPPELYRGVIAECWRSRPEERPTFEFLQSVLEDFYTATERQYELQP
UniProt P51813: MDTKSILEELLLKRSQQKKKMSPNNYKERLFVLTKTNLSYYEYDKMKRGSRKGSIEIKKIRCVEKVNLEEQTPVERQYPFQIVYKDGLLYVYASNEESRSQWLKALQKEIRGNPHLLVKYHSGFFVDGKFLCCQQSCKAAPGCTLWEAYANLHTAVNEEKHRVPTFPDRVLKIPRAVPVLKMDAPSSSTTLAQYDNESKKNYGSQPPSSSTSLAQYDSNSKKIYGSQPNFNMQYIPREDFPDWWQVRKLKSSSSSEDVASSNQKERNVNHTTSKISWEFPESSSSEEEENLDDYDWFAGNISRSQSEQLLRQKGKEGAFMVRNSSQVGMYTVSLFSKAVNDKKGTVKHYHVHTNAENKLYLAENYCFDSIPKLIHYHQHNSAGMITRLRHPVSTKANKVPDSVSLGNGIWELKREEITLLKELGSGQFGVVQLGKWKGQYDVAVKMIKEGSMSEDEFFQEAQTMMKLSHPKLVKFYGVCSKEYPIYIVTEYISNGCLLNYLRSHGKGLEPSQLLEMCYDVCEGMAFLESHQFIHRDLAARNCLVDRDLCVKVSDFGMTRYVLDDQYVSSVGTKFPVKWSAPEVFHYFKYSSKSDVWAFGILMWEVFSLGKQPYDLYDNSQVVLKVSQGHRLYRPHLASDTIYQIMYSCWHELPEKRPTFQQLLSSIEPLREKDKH
UniProt P15056, whole entry, looked up: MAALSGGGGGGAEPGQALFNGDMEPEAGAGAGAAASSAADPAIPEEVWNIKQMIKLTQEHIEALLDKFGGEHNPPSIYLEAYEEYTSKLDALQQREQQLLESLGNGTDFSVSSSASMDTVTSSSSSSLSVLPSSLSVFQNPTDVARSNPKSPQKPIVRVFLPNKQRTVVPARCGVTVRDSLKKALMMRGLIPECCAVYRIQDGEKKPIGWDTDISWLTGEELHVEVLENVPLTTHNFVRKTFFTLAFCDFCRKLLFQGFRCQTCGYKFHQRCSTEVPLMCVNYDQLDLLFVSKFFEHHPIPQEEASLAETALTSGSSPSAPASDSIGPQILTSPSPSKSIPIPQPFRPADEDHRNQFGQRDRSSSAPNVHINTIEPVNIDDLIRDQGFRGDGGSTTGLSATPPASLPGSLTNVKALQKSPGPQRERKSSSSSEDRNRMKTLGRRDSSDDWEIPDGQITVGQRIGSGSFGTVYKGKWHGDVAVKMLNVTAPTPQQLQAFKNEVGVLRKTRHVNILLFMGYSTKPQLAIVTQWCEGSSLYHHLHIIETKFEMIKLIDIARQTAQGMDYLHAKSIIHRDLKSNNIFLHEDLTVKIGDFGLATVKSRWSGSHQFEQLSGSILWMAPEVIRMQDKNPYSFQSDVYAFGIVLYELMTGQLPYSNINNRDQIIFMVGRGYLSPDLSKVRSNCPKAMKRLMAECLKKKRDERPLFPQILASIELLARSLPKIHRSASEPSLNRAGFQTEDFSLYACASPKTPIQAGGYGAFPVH
UniProt Q9UQM7, whole entry: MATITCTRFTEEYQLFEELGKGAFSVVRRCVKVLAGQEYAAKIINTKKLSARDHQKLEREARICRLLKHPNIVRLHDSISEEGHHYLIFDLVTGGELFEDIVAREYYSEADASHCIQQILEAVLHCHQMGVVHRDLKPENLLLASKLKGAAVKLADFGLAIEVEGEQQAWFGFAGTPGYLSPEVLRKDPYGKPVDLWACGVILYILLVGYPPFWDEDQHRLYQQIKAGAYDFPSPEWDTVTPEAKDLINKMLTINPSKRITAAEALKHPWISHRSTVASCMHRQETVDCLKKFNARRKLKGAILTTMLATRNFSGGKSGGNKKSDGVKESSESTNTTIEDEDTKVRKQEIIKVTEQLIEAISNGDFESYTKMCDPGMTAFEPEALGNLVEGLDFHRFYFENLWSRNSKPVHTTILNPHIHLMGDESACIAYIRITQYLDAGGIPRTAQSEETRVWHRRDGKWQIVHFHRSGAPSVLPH
UniProt Q15131: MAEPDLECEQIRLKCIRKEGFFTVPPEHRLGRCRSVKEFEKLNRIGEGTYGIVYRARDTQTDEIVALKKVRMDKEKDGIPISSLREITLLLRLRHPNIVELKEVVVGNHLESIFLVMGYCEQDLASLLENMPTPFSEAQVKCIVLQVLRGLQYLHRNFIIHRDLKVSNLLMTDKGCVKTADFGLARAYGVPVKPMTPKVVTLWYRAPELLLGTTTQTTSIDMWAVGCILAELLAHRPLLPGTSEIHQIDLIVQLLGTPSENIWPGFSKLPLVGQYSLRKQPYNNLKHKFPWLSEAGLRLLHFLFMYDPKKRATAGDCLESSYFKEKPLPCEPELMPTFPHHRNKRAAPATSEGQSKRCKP
UniProt Q00526: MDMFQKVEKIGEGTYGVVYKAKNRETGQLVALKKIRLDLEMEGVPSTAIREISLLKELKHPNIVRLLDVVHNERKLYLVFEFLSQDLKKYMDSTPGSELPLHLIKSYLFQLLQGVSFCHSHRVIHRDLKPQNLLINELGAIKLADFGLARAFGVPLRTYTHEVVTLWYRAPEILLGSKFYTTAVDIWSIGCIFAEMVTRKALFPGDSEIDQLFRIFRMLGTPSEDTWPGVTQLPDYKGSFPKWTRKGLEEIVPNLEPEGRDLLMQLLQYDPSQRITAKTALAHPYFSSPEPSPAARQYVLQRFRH
UniProt Q00535, whole entry, looked up: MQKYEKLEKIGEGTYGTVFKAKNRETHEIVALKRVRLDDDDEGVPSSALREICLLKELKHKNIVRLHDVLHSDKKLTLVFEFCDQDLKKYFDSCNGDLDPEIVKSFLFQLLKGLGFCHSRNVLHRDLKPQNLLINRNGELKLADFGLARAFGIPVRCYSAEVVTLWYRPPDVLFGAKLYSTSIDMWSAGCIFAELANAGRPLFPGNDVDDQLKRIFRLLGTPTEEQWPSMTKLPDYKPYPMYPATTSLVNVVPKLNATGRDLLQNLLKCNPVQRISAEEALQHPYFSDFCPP
UniProt Q00534, whole entry: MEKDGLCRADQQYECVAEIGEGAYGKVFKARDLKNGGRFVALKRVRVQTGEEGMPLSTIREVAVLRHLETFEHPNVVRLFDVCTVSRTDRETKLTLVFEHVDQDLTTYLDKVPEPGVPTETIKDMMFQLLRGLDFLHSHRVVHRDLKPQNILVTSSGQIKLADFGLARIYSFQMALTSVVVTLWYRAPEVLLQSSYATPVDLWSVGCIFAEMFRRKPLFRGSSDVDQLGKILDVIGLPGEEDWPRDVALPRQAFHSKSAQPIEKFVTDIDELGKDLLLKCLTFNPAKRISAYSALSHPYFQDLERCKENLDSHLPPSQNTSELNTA

Legend:
Experiment in all cases: kinase-Nluc reporter destabilization hit call (1 = scored as downregulated) (binary); higher = compound decreases kinase abundance
Settings in all cases: K562; 2-18 h
ABL1 = ABL1 (UniProt P00519)
AKT1 = AKT1 (UniProt P31749)
ALK = ALK (UniProt Q9UM73)
ARAF = ARAF (UniProt P10398)
AURKA = AURKA (UniProt O14965)
AURKB = AURKB (UniProt Q96GD4)
AURKC = AURKC (UniProt Q9UQB9)
BLK = BLK (UniProt P51451)
BMX = BMX (UniProt P51813)
BRAF = BRAF (UniProt P15056)
BRAF_V600E = test system: BRAF_V600E
BTK = BTK (UniProt Q06187)
CAMK2A = CAMK2A (UniProt Q9UQM7)
CAMK2G = CAMK2G (UniProt Q13555)
CDK10 = CDK10 (UniProt Q15131)
CDK2 = CDK2 (UniProt P24941)
CDK3 = CDK3 (UniProt Q00526)
CDK4 = CDK4 (UniProt P11802)
CDK5 = CDK5 (UniProt Q00535)
CDK6 = CDK6 (UniProt Q00534)

Measured: kinase-Nluc reporter destabilization hit call

COc1ccc(-c2cnc3c(-c4cccc5ncccc45)cnn3c2)cc1 (10 µM)
inactive: ABL1 = 0 | AKT1 = 0 | ALK 0 | ARAF 0 | AURKA 0 | AURKB 0 | AURKC 0 | BLK 0 | BMX 0 | BRAF 0 | BRAF_V600E 0 | BTK 0 | CAMK2A 0 | CAMK2G 0 | CDK10 = 0 | CDK2 = 0 | CDK3 = 0 | CDK4 = 0 | CDK5 = 0 | CDK6 = 0

C[C@@H](Nc1cc(F)cc(F)c1)c1cc(C(=O)N(C)C)cc2c(=O)cc(N3CCOCC3)oc12 (10 µM)
inactive: ABL1 = 0 | AKT1 = 0 | ALK 0 | ARAF 0 | AURKA 0 | AURKB 0 | AURKC 0 | BLK 0 | BMX 0 | BRAF 0 | BRAF_V600E 0 | BTK 0 | CAMK2A 0 | CAMK2G 0 | CDK10 = 0 | CDK2 = 0 | CDK3 = 0 | CDK4 = 0 | CDK5 = 0 | CDK6 = 0

CC(C)c1cnn2c(NCc3ccccc3)cc(NCCCCCCN)nc12 [BS-181 (hydrochloride)] (10 µM)
inactive: ABL1 = 0 | AKT1 = 0 | ALK 0 | ARAF 0 | AURKA 0 | AURKB 0 | AURKC 0 | BLK 0 | BMX 0 | BRAF 0 | BRAF_V600E 0 | BTK 0 | CAMK2A 0 | CAMK2G 0 | CDK10 = 0 | CDK2 = 0 | CDK3 = 0 | CDK4 = 0 | CDK5 = 0 | CDK6 = 0

C1=N/C2=N/c3ccc(OCCN4CCCC4)c(c3)COC/C=C/COCc3cccc(c3)C(=C1)N2 [Pacritinib] (2.5 µM)
inactive: ABL1 = 0 | AKT1 = 0 | ALK 0 | ARAF 0 | AURKA 0 | AURKB 0 | AURKC 0 | BLK 0 | BMX 0 | BRAF 0 | BRAF_V600E 0 | BTK 0 | CAMK2A 0 | CAMK2G 0 | CDK10 = 0 | CDK2 = 0 | CDK3 = 0 | CDK4 = 0 | CDK5 = 0 | CDK6 = 0

Cc1c(Br)c(Br)c2c3c1nc(N1CCNCC1)n3CCC2 [SEL120-34A (monohydrochloride)] (2.5 µM)
inactive: ABL1 = 0 | AKT1 = 0 | ALK 0 | ARAF 0 | AURKA 0 | AURKB 0 | AURKC 0 | BLK 0 | BMX 0 | BRAF 0 | BRAF_V600E 0 | BTK 0 | CAMK2A 0 | CAMK2G 0 | CDK10 = 0 | CDK2 = 0 | CDK3 = 0 | CDK4 = 0 | CDK5 = 0 | CDK6 = 0

Fetched by compound from above (2):
Cc1c(Br)c(Br)c2c3c1nc(N1CCNCC1)n3CCC2 [SEL120-34A (monohydrochloride)] (2.5 µM)
inactive: ABL1 = 0 | AKT1 = 0 | ALK 0 | ARAF 0 | AURKA 0 | AURKB 0 | AURKC 0 | BLK 0 | BMX 0 | BRAF 0 | BRAF_V600E 0 | BTK 0 | CAMK2A 0 | CAMK2G 0 | CDK10 = 0 | CDK2 = 0 | CDK3 = 0 | CDK4 = 0 | CDK5 = 0 | CDK6 = 0

CC(C)c1cnn2c(NCc3ccccc3)cc(NCCCCCCN)nc12 [BS-181 (hydrochloride)] (10 µM)
inactive: ABL1 = 0 | AKT1 = 0 | ALK 0 | ARAF 0 | AURKA 0 | AURKB 0 | AURKC 0 | BLK 0 | BMX 0 | BRAF 0 | BRAF_V600E 0 | BTK 0 | CAMK2A 0 | CAMK2G 0 | CDK10 = 0 | CDK2 = 0 | CDK3 = 0 | CDK4 = 0 | CDK5 = 0 | CDK6 = 0

The list continues.

CC(C)n1cnnc1-c1cccc(NC(=O)c2cc3ccc(F)cc3[nH]2)n1 (2.5 µM)
inactive: ABL1 = 0 | AKT1 = 0 | ALK 0 | ARAF 0 | AURKA 0 | AURKB 0 | AURKC 0 | BLK 0 | BMX 0 | BRAF 0 | BRAF_V600E 0 | BTK 0 | CAMK2A 0 | CAMK2G 0 | CDK10 = 0 | CDK2 = 0 | CDK3 = 0 | CDK4 = 0 | CDK5 = 0 | CDK6 = 0

C[C@@]12CCc3occc3[C@H]1CC[C@@]13C[C@@H](CC[C@H]12)[C@@](O)(CO)C3 [Cafestol] (10 µM)
inactive: ABL1 = 0 | AKT1 = 0 | ALK 0 | ARAF 0 | AURKA 0 | AURKB 0 | AURKC 0 | BLK 0 | BMX 0 | BRAF 0 | BRAF_V600E 0 | BTK 0 | CAMK2A 0 | CAMK2G 0 | CDK10 = 0 | CDK2 = 0 | CDK3 = 0 | CDK4 = 0 | CDK5 = 0 | CDK6 = 0

CC(C)=C/C=C1\O[C@@H]2CC(C)=CC(=O)[C@@H]2[C@]1(C)O [Bisabolangelone] (10 µM)
inactive: ABL1 = 0 | AKT1 = 0 | ALK 0 | ARAF 0 | AURKA 0 | AURKB 0 | AURKC 0 | BLK 0 | BMX 0 | BRAF 0 | BRAF_V600E 0 | BTK 0 | CAMK2A 0 | CAMK2G 0 | CDK10 = 0 | CDK2 = 0 | CDK3 = 0 | CDK4 = 0 | CDK5 = 0 | CDK6 = 0

OCCC#Cc1nc(-c2ccc(F)cc2)c(-c2ccncc2)n1CCCc1ccccc1 (2.5 µM)
inactive: ABL1 = 0 | AKT1 = 0 | ALK 0 | ARAF 0 | AURKA 0 | AURKB 0 | AURKC 0 | BLK 0 | BMX 0 | BRAF 0 | BRAF_V600E 0 | BTK 0 | CAMK2A 0 | CAMK2G 0 | CDK10 = 0 | CDK2 = 0 | CDK3 = 0 | CDK4 = 0 | CDK5 = 0 | CDK6 = 0

O=c1cc(-c2ccc(O)cc2)oc2cc(O)c(O)c(O)c12 [Scutellarein] (10 µM)
active: AURKC 1
inactive: ABL1 = 0 | AKT1 = 0 | ALK 0 | ARAF 0 | AURKA 0 | AURKB 0 | BLK 0 | BMX 0 | BRAF 0 | BRAF_V600E 0 | BTK 0 | CAMK2A 0 | CAMK2G 0 | CDK10 = 0 | CDK2 = 0 | CDK3 = 0 | CDK4 = 0 | CDK5 = 0 | CDK6 = 0

C=CC(=O)Nc1cccc(Nc2nc(Nc3ccc(Oc4ccnc(C(=O)NC)c4)cc3)ncc2F)c1 (2.5 µM)
inactive: ABL1 = 0 | AKT1 = 0 | ALK 0 | ARAF 0 | AURKA 0 | AURKB 0 | AURKC 0 | BLK 0 | BMX 0 | BRAF 0 | BRAF_V600E 0 | BTK 0 | CAMK2A 0 | CAMK2G 0 | CDK10 = 0 | CDK2 = 0 | CDK3 = 0 | CDK4 = 0 | CDK5 = 0 | CDK6 = 0

Cc1nc(NC(=O)N2CCC[C@H]2C(N)=O)sc1-c1csc(C(C)(C)C)n1 (10 µM)
inactive: ABL1 = 0 | AKT1 = 0 | ALK 0 | ARAF 0 | AURKA 0 | AURKB 0 | AURKC 0 | BLK 0 | BMX 0 | BRAF 0 | BRAF_V600E 0 | BTK 0 | CAMK2A 0 | CAMK2G 0 | CDK10 = 0 | CDK2 = 0 | CDK3 = 0 | CDK4 = 0 | CDK5 = 0 | CDK6 = 0

CCCCCC1CC1CC1CC1CCCCCCCC(=O)O (stereo not given) (10 µM)
inactive: ABL1 = 0 | AKT1 = 0 | ALK 0 | ARAF 0 | AURKA 0 | AURKB 0 | AURKC 0 | BLK 0 | BMX 0 | BRAF 0 | BRAF_V600E 0 | BTK 0 | CAMK2A 0 | CAMK2G 0 | CDK10 = 0 | CDK2 = 0 | CDK3 = 0 | CDK4 = 0 | CDK5 = 0 | CDK6 = 0

NC(=O)c1nc(-c2c(F)cccc2Cl)oc1Nc1ccc(C(=O)N2CCOCC2)cc1 (10 µM)
inactive: ABL1 = 0 | AKT1 = 0 | ALK 0 | ARAF 0 | AURKA 0 | AURKB 0 | AURKC 0 | BLK 0 | BMX 0 | BRAF 0 | BRAF_V600E 0 | BTK 0 | CAMK2A 0 | CAMK2G 0 | CDK10 = 0 | CDK2 = 0 | CDK3 = 0 | CDK4 = 0 | CDK5 = 0 | CDK6 = 0

CC(C)=CCC/C(C)=C/CC/C(C)=C/CSc1ccccc1C(=O)O [Salirasib] (10 µM)
inactive: ABL1 = 0 | AKT1 = 0 | ALK 0 | ARAF 0 | AURKA 0 | AURKB 0 | AURKC 0 | BLK 0 | BMX 0 | BRAF 0 | BRAF_V600E 0 | BTK 0 | CAMK2A 0 | CAMK2G 0 | CDK10 = 0 | CDK2 = 0 | CDK3 = 0 | CDK4 = 0 | CDK5 = 0 | CDK6 = 0

NC(=O)c1ccc2nc(-c3ccc(C4(N)CCC4)cc3)c(-c3ccccc3)n2n1 (10 µM)
inactive: ABL1 = 0 | AKT1 = 0 | ALK 0 | ARAF 0 | AURKA 0 | AURKB 0 | AURKC 0 | BLK 0 | BMX 0 | BRAF 0 | BRAF_V600E 0 | BTK 0 | CAMK2A 0 | CAMK2G 0 | CDK10 = 0 | CDK2 = 0 | CDK3 = 0 | CDK4 = 0 | CDK5 = 0 | CDK6 = 0

COc1cc(OC)c(/C=C/S(=O)(=O)Cc2ccc(OC)c(NCC(=O)O)c2)c(OC)c1 [Rigosertib (sodium)] (10 µM)
inactive: ABL1 = 0 | AKT1 = 0 | ALK 0 | ARAF 0 | AURKA 0 | AURKB 0 | AURKC 0 | BLK 0 | BMX 0 | BRAF 0 | BRAF_V600E 0 | BTK 0 | CAMK2A 0 | CAMK2G 0 | CDK10 = 0 | CDK2 = 0 | CDK3 = 0 | CDK4 = 0 | CDK5 = 0 | CDK6 = 0
